Measurements taken from PubChem BioAssay AID504834 (National Center for Advancing Translational Sciences (NCATS), 2011).
Values joined by “and” are separate entries in the source; they are usually repeats but may differ in a detail not shown here. Identical values can stand only once. In all, about 320,000 compounds went through this assay and about 22,000 (6.9%) were called active. This list was built around the results that the source calls inconclusive (neither active nor inactive); the mix of calls is not that of the screen. The call rests on the fitted dose curve; in most records, active means well fitted inhibition curve with a large enough effect; inconclusive means small, poorly fitted or top-dose-only effect, or another doubt; inactive means no such curve, though single readings can be large or run the other way. Potencies beside an inconclusive call are fits to weak or partial responses and may not hold up.

Assay: Primary qHTS for delayed death inhibitors of the malarial parasite plastid, 96 hour incubation
Settings: P. falciparum luciferase reporter growth; series mostly up to 28.7 µM
In short: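 Compounds incubated with erythrocytes infected by luciferase-expressing P. falciparum (2% hematocrit, 0.05% parasitemia final) for 96 hours, 37 C in 5% CO2. Growth inhibition scored as decreased luciferase luminescence.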
Potency means the concentration at half of the fitted maximal effect.

For COc1cc(/C=C(\C#N)c2nc3ccccc3s2)ccc1OCC(=O)Nc1ccccc1, which Potency is on record?
The Potency was “inactive”.

For O=C1NC(c2ccccc2)=C(c2ccc3ccccc3n2)C(c2ccccc2)N1 (centres undefined), which Potency is on record?
The Potency was active: 5.22 µM.

With O=C(CN1C(=O)S/C(=C\c2cccs2)C1=O)Nc1ccc(O)c(C(=O)O)c1 as the compound, how does the Potency read?
The Potency was active: 10.4 µM.

With COc1ccccc1OCCCCN1CCN(C(c2ccccc2)c2ccccc2)CC1 as the compound, how does the Potency read?
Its Potency is active: 11.7 µM.

With CCOc1ccccc1N(C)S(=O)(=O)c1ccc2c(c1)N(C(C)=O)CCO2 as the compound, how does the Potency read?
The Potency was active: 1.85 µM.

For COc1ccccc1Nc1nc(N)nc(CSC(=S)N2CCC(C)CC2)n1, which Potency is on record?
Its Potency is inconclusive: 10.4 µM [inhibitor, single point].

Which Potency does the source give for NNC(=S)NC1CCCCC1 here?
The Potency was inconclusive: 10.4 µM [inhibitor, single point].

For COc1cc(C(=O)Nc2nnc(C3CC3)s2)ccc1OCc1c(C)noc1C, which Potency is on record?
Its Potency is inconclusive: 13.1 µM [inhibitor, partial curve].

With O=C(Cc1c(F)cccc1Cl)Nc1cc(S(=O)(=O)N2CCCCC2)ccc1N1CCOCC1 as the compound, how does the Potency read?
The Potency was inconclusive: 6.57 µM [inhibitor, partial curve].

For CCn1c(N2CCN(CC(=O)Nc3cccc(C)c3C)CC2)nc2ccccc21, which Potency is on record?
The Potency was inconclusive: 9.28 µM [inhibitor, single point].

Which Potency does the source give for Brc1cccc(CNc2nc3ccccc3n2CCN2CCCCC2)c1 here?
Its Potency is active: 11.7 µM.

With COc1ccc(C)cc1N(C(=O)c1ccco1)C(C(=O)NC1CCCC1)c1ccc(N2CCOCC2)cc1 (centres undefined) as the compound, how does the Potency read?
Its Potency is inconclusive: 6.57 µM [inhibitor, partial curve].

Which Potency does the source give for CN(C)S(=O)(=O)c1ccc(-c2csc(N/N=C/c3ccco3)n2)cc1 here?
The Potency was “inactive”.

For Cc1ccc(NC(=S)NN2CCOCC2)c(C)c1, which Potency is on record?
Its Potency is active: 14.7 µM.

Which Potency does the source give for OCC[C@H]1C[C@H](O)[C@@H](O)[C@@]2(CCCc3ccccc3O2)O1 here?
The Potency was “inactive”.

With CS(=O)(=O)Nc1ccccc1C(=O)NCCSc1ccccc1 as the compound, how does the Potency read?
Its Potency is inconclusive: 18.5 µM [inhibitor, single point].

For CCC(C)Oc1cc(-c2ccnc(Nc3cccc(Cl)c3)n2)ccn1 (centres undefined), which Potency is on record?
Its Potency is inconclusive: 10.4 µM [inhibitor, single point].

With CN(C)CC/C=C1\c2ccccc2COc2ccccc21 as the compound, how does the Potency read?
Its Potency is inconclusive: 19 µM [inhibitor, single point] and inconclusive: 18.5 µM [inhibitor, single point].

With Cc1ccccc1NC(=O)c1nnn(-c2ccc3c(c2)OCCO3)c1N as the compound, how does the Potency read?
The Potency was inconclusive: 11.7 µM [inhibitor, partial curve, poor fit].

Which Potency does the source give for Cc1ccccc1CCNC(=O)c1cc(C2CC2)nc2c1cnn2C(C)C here?
The Potency was active: 13.1 µM.

Which Potency does the source give for CCc1c(C)nc(SCC(=O)NNC(=O)c2ccco2)[nH]c1=O here?
Its Potency is inconclusive: 18.5 µM [inhibitor, partial curve, poor fit].

Which Potency does the source give for CCC(=O)Nc1ccc(Cl)c(NC(=O)c2cccc(OC)c2)c1 here?
The Potency was “inactive”.

Which Potency does the source give for Cc1ccc(-n2c(=O)[nH]cc(C(=O)Nc3ccc4c(c3)OCCO4)c2=O)cc1C here?
Its Potency is inconclusive: 18.5 µM [inhibitor, single point].

Which Potency does the source give for COc1c(F)c(F)c(C(=O)O)c(Nc2cc(C)cc(C)c2)c1F here?
The Potency was inconclusive: 14.7 µM [inhibitor, single point].

With CC(C)CNc1nc(S(=O)(=O)c2ccccc2)c(Cl)s1 as the compound, how does the Potency read?
Its Potency is inconclusive: 14.7 µM [inhibitor, partial curve, poor fit].

With O=C1CSc2ccc(S(=O)(=O)NCc3ccc(Cl)cc3)cc2N1 as the compound, how does the Potency read?
Its Potency is inconclusive: 10.4 µM [inhibitor, single point].

With N#C/C(=C(/O)COC(=O)c1ccc(O)cc1)c1nc2ccccc2[nH]1 as the compound, how does the Potency read?
The Potency was “inactive”.

For COc1ccc([N+](=O)[O-])cc1NC(=S)NC(=O)C(C)(C)C, which Potency is on record?
The Potency was inconclusive: 4.15 µM [inhibitor, single point].

With CCN(CC(=O)NCc1ccc(Cl)cc1)C(=O)/C=C/c1ccc(Cl)c([N+](=O)[O-])c1 as the compound, how does the Potency read?
Its Potency is inconclusive: 11.7 µM [inhibitor, single point].

Which Potency does the source give for Cc1ccc(NC(=O)CSc2nnc(NC(=O)C(C)C)s2)c(C)c1 here?
Its Potency is inconclusive: 2.33 µM [inhibitor, partial curve, poor fit].

Which Potency does the source give for COc1cccc(CNC(=O)CSc2ccc(-c3cccs3)nn2)c1 here?
The Potency was inconclusive: 10.4 µM [inhibitor, single point].

Which Potency does the source give for CCOC(=O)c1c(S(=O)(=O)N2CCN(Cc3ccccc3)CC2)c(C)n(C)c1C here?
The Potency was inconclusive: 10.4 µM [inhibitor, single point].

With OC12CCCCC1C(c1ccc3c(c1)OCO3)N(Cc1ccc(F)cc1)CC2 (centres undefined) as the compound, how does the Potency read?
The Potency was active: 9.28 µM.

With O=C(CSc1nnnn1C1CC1)N1CCN(c2ccc(O)cc2)CC1 as the compound, how does the Potency read?
Its Potency is inconclusive: 10.4 µM [inhibitor, single point].

With COC(=O)Cn1cc(/C=C2\C(=O)NC(=O)N(c3ccc(OC)cc3)C2=O)c2ccccc21 as the compound, how does the Potency read?
The Potency was inconclusive: 11.7 µM [inhibitor, single point].

For COc1ccc(S(=O)(=O)N2CCc3ccccc32)cc1C(=O)OCc1c(C)noc1C, which Potency is on record?
Its Potency is inconclusive: 9.28 µM [inhibitor, partial curve, poor fit].

With Cn1c(=O)oc2cc(S(=O)(=O)Nc3cccc4c3CCCC4)ccc21 as the compound, how does the Potency read?
Its Potency is inconclusive: 18.5 µM [inhibitor, single point].

Which Potency does the source give for C/C(=N\NC(=O)c1cc(-c2cccc(OC(C)C)c2)nc2ccccc12)c1cccnc1 here?
The Potency was active: 13.1 µM.

For C=C[C@H](CC(C)C)N(Cc1ccccc1)S(=O)(=O)N(Cc1ccc(OC)cc1)[C@H](C=C)CC(C)C, which Potency is on record?
Its Potency is inconclusive: 2.33 µM [inhibitor, partial curve, poor fit].

Which Potency does the source give for COC(=O)c1cc(CSc2nc3ccccc3c(=O)n2C)oc1C here?
Its Potency is “inactive”.

Which Potency does the source give for COc1ccc(NC(=O)C2CCCN(C(=O)Nc3ccc(F)cc3)C2)cc1 (centres undefined) here?
Its Potency is “inactive”.

With CCOc1ccccc1NC(=O)CN1C(=O)COc2ccc(C)cc21 as the compound, how does the Potency read?
The Potency was inconclusive: 16.5 µM [inhibitor, single point].

For COc1ccc(-c2nc(CSCC(=O)NC3CCCc4ccccc43)c(C)o2)cc1 (centres undefined), which Potency is on record?
Its Potency is “inactive”.

For O=C(NCc1cccnc1)C1CC(=O)N(CCc2ccccc2)C1 (centres undefined), which Potency is on record?
The Potency was “inactive”.

Which Potency does the source give for CCOC(=O)c1nc(Nc2ccc(C(=O)O)cc2)c2ccccc2n1 here?
The Potency was “inactive”.

With CC1(C)c2ccccc2N2CC(=O)NC21/C=C/c1ccco1 (centres undefined) as the compound, how does the Potency read?
The Potency was inconclusive: 18.5 µM [inhibitor, single point].

Which Potency does the source give for C[N+]1(C)[C@@H]2CC(OC(=O)[C@@H](CO)c3ccccc3)C[C@@H]1[C@H]1O[C@H]12 (some centres undefined) here?
The Potency was inconclusive: 6.75 µM [inhibitor, partial curve].

For CCOc1ccc(NC(=S)Nc2cc(-c3ccccc3)[nH]n2)cc1, which Potency is on record?
The Potency was inconclusive: 13.1 µM [inhibitor, single point].

For CCCCOc1ccc(C2(C)NC(=O)N(C)C2=O)cc1 (centres undefined), which Potency is on record?
The Potency was inconclusive: 13.1 µM [inhibitor, single point].

For Cc1ccc[n+](CC2OCc3ccccc3CO2)c1, which Potency is on record?
Its Potency is inconclusive: 8.28 µM [inhibitor, partial curve, poor fit].

For N#Cc1nc(-c2ccc(OCc3ccc(Cl)cc3)cc2)oc1NCc1cccnc1, which Potency is on record?
Its Potency is inconclusive: 18.5 µM [inhibitor, single point].

Which Potency does the source give for O=C1CC(c2ccccc2Cl)c2c(sc3c(=O)[nH]c(CCl)nc23)N1 (centres undefined) here?
The Potency was inconclusive: 1.85 µM [inhibitor, full curve, poor fit].

Which Potency does the source give for COc1nnc(-c2ccc(C)c(S(N)(=O)=O)c2)c2ccccc12 here?
Its Potency is active: 2.94 µM.

For CCC(=O)N1CCc2cc(S(=O)(=O)NCCC(=O)N3CCN(c4ccccc4)CC3)ccc21, which Potency is on record?
Its Potency is “inactive”.

Which Potency does the source give for Cc1ccc(NC(=O)c2cccc(S(=O)(=O)N(C)c3ccccc3)c2)cc1S(=O)(=O)N1CCOCC1 here?
The Potency was active: 11.7 µM.

For COc1ccc(CCNC(=S)Nc2ccccc2)cc1, which Potency is on record?
The Potency was inconclusive: 13.1 µM [inhibitor, partial curve, poor fit].

With Cn1c(O)c(C2=c3ccccc3=NC2=O)sc1=Nc1ccc(Cl)cc1 as the compound, how does the Potency read?
The Potency was “inactive”.

With CCN(CC)CCN1C(=O)CN=C(c2ccccc2F)c2cc(Cl)ccc21 as the compound, how does the Potency read?
Its Potency is inconclusive: 13.5 µM [inhibitor, single point].

For Cc1ccc(C(=O)NCc2ccccn2)o1, which Potency is on record?
Its Potency is “inactive”.

For CC(Oc1ccc(Cl)cc1Cl)C(=O)Nc1cccnc1 (centres undefined), which Potency is on record?
The Potency was inconclusive: 18.5 µM [inhibitor, single point].

Which Potency does the source give for NS(=O)(=O)c1cccc(NC(=S)NC(=O)C23CC4CC(CC(C4)C2)C3)c1 here?
The Potency was “inactive”.

For COc1ccc2[nH]c(C)c(CCNC(=S)Nc3ccc(C)cc3)c2c1, which Potency is on record?
The Potency was inconclusive: 5.86 µM [inhibitor, single point].

Which Potency does the source give for CN(CCCCN1CCOCC1)Cc1nc(-c2ccc3c(c2)OCO3)no1 here?
The Potency was “inactive”.

Which Potency does the source give for CC[N+](CC)(CC)CCCCOc1ccc2c(c1)C(=O)c1cc(OCCCC[N+](CC)(CC)CC)ccc1-2 here?
Its Potency is inconclusive: 0.0329 µM [inhibitor, full curve].

With CCC(C)[C@H](NC(=O)[C@@H]1CSC2c3ccccc3C(=O)N21)C(=O)N1CCCCC1 (some centres undefined) as the compound, how does the Potency read?
The Potency was inconclusive: 13.1 µM [inhibitor, single point].

With CCN(CC)C(=O)CSc1nc2cccnc2n1-c1ccccc1OC as the compound, how does the Potency read?
The Potency was inconclusive: 18.5 µM [inhibitor, single point].

For O=C(C1CC(=O)N(c2ccc3c(c2)OCCO3)C1)N1CCN(Cc2ccccc2)CC1 (centres undefined), which Potency is on record?
Its Potency is inconclusive: 18.5 µM [inhibitor, single point].

For CC(NC(=O)c1ccc(OC2CCN(Cc3ccccn3)CC2)cc1)c1nccs1 (centres undefined), which Potency is on record?
The Potency was active: 13.1 µM.

With CCOc1ccc(OCc2ccc(C(=O)NCc3cccnc3)o2)cc1 as the compound, how does the Potency read?
Its Potency is inconclusive: 0.131 µM [inhibitor, full curve, poor fit].
